At least one structure is not confirmed: it was looked up by name or label, or the drawing left a doubt.
Key:
Assay type in all cases: in vivo, human
Conditions in all cases: 265 mg BID oral
plasma Abeta40 = experiment: Phase 2 trial in early AD APOE4 carriers: plasma Abeta40
Method: (§1) Evaluation of disease modifying effects from phase 2 trial of ALZ-801 (valiltramiprosate) in subjects with early Alzheimer's disease were conducted. The study enrolled 84 patients, with early AD, who carry the APOE4/4 or APOE3/4 genotype and have an MMSE score ranging from 22 to 30 (CDR-G 0.5 or 1). Each patient received 265 mg ALZ-801 twice daily. The average MMSE score of the subjects was 26 (mean age 69 years, 52% female). Subjects were either amyloid PET positive or A+/T+ on CSF assays. CSF criteria were: Ratio of Aβ42/40×10≤0.61, and p-tau181≥61 pg/ml. CSF was evaluated at 52 weeks, and plasma biomarkers at every visit.
(§2) All fluid biomarker analyses were performed at the Neurochemistry Laboratory of Dr. Blennow (Molndal, Sweden), and were blinded to subject's demographics or genotype. CSF biomarker assays were analyzed using Lumipulse (Fujirebio) and plasma assays utilized Simoa assays. Cognitive tests include the Rey Auditory Verbal Learning Test (RAVLT: immediate, delayed and recognition memory) and Digit Symbol Substitution Tests (DSST), and a composite Z-score is calculated (3-item RAVLT+DSST). Change from baseline (CBL) analyses were performed on the mITT population and included all observed data, using paired t-tests and 2-sided p-values. The primary biomarker outcome was p-tau181. […]

plasma Abeta42 = experiment: Phase 2 trial in early AD APOE4 carriers: plasma Abeta42
Method: as §1, §2

[1] = Phase 2 trial in early AD APOE4 carriers: cognitive tests (RAVLT, DSST, composite Z-score)

CC(C)[C@H](N)C(=O)NCCCS(=O)(=O)O [ALZ-801, valyl-3-amino-1-propanesulfonic acid]
change in plasma levels of Abeta40 (in words) (plasma Abeta40; at 13-26 weeks): increase | change in plasma Abeta40 (in words) (plasma Abeta40; week 52): Reductions | change in plasma levels of Abeta42 (in words) (plasma Abeta42; at 13-26 weeks): increase | change in plasma Abeta42 (in words) (plasma Abeta42; week 52): Reductions | composite Z-score of cognition (RAVLT memory scores + DSST), result in words ([1]; 26 weeks, p=0.002): significant increase | memory by Rey's Auditory Verbal Learning Test (RAVLT), result in words ([1]; 52 week treatment, vs baseline and matched untreated ADNI patients): memory improvements up to about 6-months and maintained an improvement over baseline | composite Z-score of cognition (RAVLT memory scores + DSST), result in words ([1]; after 52 weeks of treatment): remained numerically above baseline

Source: US20250127734A1, “ALZ-801 FOR USE IN TREATING A COVID-19 ASSOCIATED NEUROLOGICAL SYMPTOM” (Alzheon, Inc., priority 2022, published 2025)
